Results published in the supplement of paper PMC4604168 (melanoma cell lines).
Some of the results follow. Many values rest on one well or one pass, so single values are uncertain.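 Imaging used 1,536-well plates; nuclei positive for cleaved PARP by antibody were divided by total DNA-stained nuclei to yield the apoptosis fraction. Doses for screening kept most cells viable, and cell lines differ markedly in resting and induced cleaved-PARP levels.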

System: MEL-HO
Experiment: cleaved PARP positive nuclei fraction relative to DMSO control; melanoma cells; higher = more apoptosis
Conditions: library dose: low library concentration; 72 h

Structure (SMILES)	cleaved PARP positive nuclei fraction [%]
CC(C)C[C@H](NC(=O)[C@H](Cc1ccccc1)NC(=O)c1cnccn1)B(O)O [Bortezomib] + Cn1c(Nc2ccc(C(F)(F)F)cc2)nc2cc(Oc3ccnc(-c4ncc(C(F)(F)F)[nH]4)c3)ccc21 [CHIR265] (first compound 0.001 µM, partner dose 0.08 µM)	44.4
Cn1c(=O)n(-c2ccc(C(C)(C)C#N)cc2)c2c3cc(-c4cnc5ccccc5c4)ccc3ncc21 + C[C@]1(c2nc3c(C(N)=O)cccc3[nH]2)CCCN1 [Veliparib] (first compound 0.004 µM, partner dose 1.4 µM)	88.6
CS(=O)(=O)CCNCc1ccc(-c2ccc3ncnc(Nc4ccc(OCc5cccc(F)c5)c(Cl)c4)c3c2)o1 [lapatinib] + COCC[n+]1c2c(n(Cc3cnccn3)c1C)C(=O)c1ccccc1C2=O [YM155] (first compound 0.8 µM, partner dose 0.0004 µM)	80.7
CCCS(=O)(=O)Nc1ccc(F)c(C(=O)c2c[nH]c3ncc(Cl)cc23)c1F + Nc1nc(F)nc2c1ncn2[C@@H]1O[C@H](CO)[C@@H](O)[C@@H]1O [fludarabine] (first compound 0.08 µM, partner dose 0.2 µM)	39.7
Cc1cc(Nc2cc(N3CCN(C)CC3)nc(/C=C/c3ccccc3)n2)n[nH]1 + CO[C@H]1C[C@@H]2CC[C@@H](C)[C@@](O)(O2)C(=O)C(=O)N2CCCC[C@H]2C(=O)O[C@H]([C@H](C)C[C@@H]2CC[C@@H](OCCO)[C@H](OC)C2)CC(=O)[C@H](C)/C=C(\C)[C@@H](O)[C@@H](OC)C(=O)[C@H](C)C[C@H](C)/C=C/C=C/C=C/1C [everolimus] (first compound 0.04 µM, partner dose 0.02 µM)	69.4
CCCS(=O)(=O)Nc1ccc(F)c(C(=O)c2c[nH]c3ncc(Cl)cc23)c1F + Nc1ncn([C@H]2C[C@H](O)[C@@H](CO)O2)c(=O)n1 [decitabine] (first compound 0.08 µM, partner dose 0.1 µM)	106
